The values below come from PMC3660581.

No constants are given. Whether binding was seen depends on the method and setting. In cells and extracts the contact can be indirect. Some entries that bind do so weakly or less than the wild type.

In assay [1] the target is T1, apolipoprotein O-like protein (APOOL) (human (endogenous in HeLa)) (UniProt Q6UXV4).
T1 sequence: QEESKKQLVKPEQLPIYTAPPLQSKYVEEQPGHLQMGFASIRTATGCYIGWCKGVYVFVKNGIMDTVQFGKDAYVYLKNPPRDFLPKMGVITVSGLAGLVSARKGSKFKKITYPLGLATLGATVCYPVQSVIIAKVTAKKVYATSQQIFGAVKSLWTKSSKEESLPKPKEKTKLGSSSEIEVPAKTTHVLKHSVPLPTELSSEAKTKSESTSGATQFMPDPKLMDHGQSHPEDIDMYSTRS
Put plainly: co-IP; endogenous proteins; HeLa mitochondria (250 µg) solubilized with digitonin (detergent:protein 4:1) at 4°C; 1 µg antibody against APOOL or Mitofilin, or preimmune serum, protein A beads; washed with PBS, 0.01% digitonin; eluted with 0.1 M citric acid; western blot. For orientation: Immunoblotting shows a protein as a band on a membrane.

The target in assay [2] is T2, Mitofilin (human (endogenous in HeLa)) (UniProt Q16891).
T2 sequence: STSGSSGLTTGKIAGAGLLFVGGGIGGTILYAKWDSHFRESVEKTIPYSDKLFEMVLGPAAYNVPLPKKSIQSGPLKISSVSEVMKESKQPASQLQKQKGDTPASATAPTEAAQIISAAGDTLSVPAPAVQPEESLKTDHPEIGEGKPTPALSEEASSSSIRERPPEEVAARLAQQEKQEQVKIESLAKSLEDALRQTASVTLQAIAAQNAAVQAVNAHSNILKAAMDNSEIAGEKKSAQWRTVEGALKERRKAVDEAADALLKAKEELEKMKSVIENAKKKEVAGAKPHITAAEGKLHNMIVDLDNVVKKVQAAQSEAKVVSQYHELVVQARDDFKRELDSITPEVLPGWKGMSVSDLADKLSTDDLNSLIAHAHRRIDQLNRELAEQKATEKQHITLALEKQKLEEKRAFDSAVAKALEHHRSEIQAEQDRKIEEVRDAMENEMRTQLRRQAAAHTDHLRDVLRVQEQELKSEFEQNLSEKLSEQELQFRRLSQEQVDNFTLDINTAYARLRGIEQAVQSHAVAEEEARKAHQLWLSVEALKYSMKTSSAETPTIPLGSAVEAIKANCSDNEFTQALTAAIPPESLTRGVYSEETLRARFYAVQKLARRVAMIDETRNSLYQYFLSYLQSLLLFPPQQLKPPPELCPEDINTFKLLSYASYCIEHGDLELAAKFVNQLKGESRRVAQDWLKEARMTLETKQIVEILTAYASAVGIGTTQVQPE
Described as above.

B1: sorting and assembly machinery component 50 (SAMM50) (protein, UniProt Q9Y512 1-469)
chain: MGTVHARSLEPLPSSGPDFGGLGEEAEFVEVEPEAKQEILENKDVVVQHVHFDGLGRTKDDIIICEIGDVFKAKNLIEVMRKSHEAREKLLRLGIFRQVDVLIDTCQGDDALPNGLDVTFEVTELRRLTGSYNTMVGNNEGSMVLGLKLPNLLGRAEKVTFQFSYGTKETSYGLSFFKPRPGNFERNFSVNLYKVTGQFPWSSLRETDRGMSAEYSFPIWKTSHTVKWEGVWRELGCLSRTASFAVRKESGHSLKSSLSHAMVIDSRNSSILPRRGALLKVNQELAGYTGGDVSFIKEDFELQLNKQLIFDSVFSASFWGGMLVPIGDKPSSIADRFYLGGPTSIRGFSMHSIGPQSEGDYLGGEAYWAGGLHLYTPLPFRPGQGGFGELFRTHFFLNAGNLCNLNYGEGPKAHIRKLAECIRWSYGAGIVLRLGNIARLELNYCVPMGVQTGDRICDGVQFGAGIRFL
Consider B1, for which the binding result in assay [1] and in assay [2] was “binds” throughout.
